# Data reported in the supplement of paper PMC4604168 (melanoma cell lines).
# The other results are listed elsewhere or left out. Single values are uncertain, as repeats are few or missing.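 The apoptosis fraction was the count of cleaved-PARP antibody-stained nuclei relative to all DNA-stained nuclei, imaged in 1,536-well plates. Screening doses were set so most cells survived, and baseline and induced cleaved-PARP levels vary greatly across cell lines.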
# Tested on: COLO792
# Test: cleaved PARP positive nuclei fraction relative to DMSO control; melanoma cells; higher = more apoptosis
# Details: library dose: low library concentration; 72 h
row,Compound,cleaved PARP positive nuclei fraction [%]
1,"CC[C@]1(O)C[C@H]2CN(CCc3c([nH]c4ccccc34)[C@@](C(=O)OC)(c3cc4c(cc3OC)N(C=O)[C@H]3[C@@](O)(C(=O)OC)[C@H](OC(C)=O)[C@]5(CC)C=CCN6CC[C@]43[C@@H]65)C2)C1 [vincristine] + CO[C@H]1C[C@@H]2CC[C@@H](C)[C@@](O)(O2)C(=O)C(=O)N2CCCC[C@H]2C(=O)O[C@H]([C@H](C)C[C@@H]2CC[C@@H](OCCO)[C@H](OC)C2)CC(=O)[C@H](C)/C=C(\C)[C@@H](O)[C@@H](OC)C(=O)[C@H](C)C[C@H](C)/C=C/C=C/C=C/1C [everolimus] (first compound 0.0001 µM, partner dose 0.02 µM)",91.8
2,"COc1cc([C@@H]2c3cc4c(cc3[C@@H](O[C@@H]3O[C@@H]5CO[C@@H](C)O[C@H]5[C@H](O)[C@H]3O)[C@H]3COC(=O)[C@H]23)OCO4)cc(OC)c1O [etoposide] + CC1(C)CCC(c2ccc(Cl)cc2)=C(CN2CCN(c3ccc(C(=O)NS(=O)(=O)c4ccc(N[C@H](CCN5CCOCC5)CSc5ccccc5)c(S(=O)(=O)C(F)(F)F)c4)cc3)CC2)C1 [ABT263] (first compound 0.02 µM, partner dose 0.4 µM)",399
3,"CC[C@]1(O)C[C@H]2CN(CCc3c([nH]c4ccccc34)[C@@](C(=O)OC)(c3cc4c(cc3OC)N(C=O)[C@H]3[C@@](O)(C(=O)OC)[C@H](OC(C)=O)[C@]5(CC)C=CCN6CC[C@]43[C@@H]65)C2)C1 [vincristine] + NC(=O)c1ccc(N(C(N)=O)c2c(F)cccc2F)nc1-c1ccc(F)cc1F [VX702] (first compound 0.0001 µM, partner dose 0.4 µM)",119
4,"Cc1ccc(Nc2nccc(N(C)c3ccc4c(C)n(C)nc4c3)n2)cc1S(N)(=O)=O [Pazopanib] + C=CCNC1=C2C[C@@H](C)C[C@H](OC)[C@H](O)[C@@H](C)/C=C(\C)[C@H](OC(N)=O)[C@@H](OC)/C=C\C=C(/C)C(=O)NC(=CC1=O)C2=O [Tanespimycin] (first compound 0.4 µM, partner dose 0.002 µM)",115
5,"O=C(Nc1cc(C(F)(F)F)cc(C(F)(F)F)c1)c1cc(Cl)ccc1O + Cn1c(=O)n(-c2ccc(C(C)(C)C#N)cc2)c2c3cc(-c4cnc5ccccc5c4)ccc3ncc21 [NVP-BEZ235] (first compound 0.016 µM, partner dose 0.004 µM)",149
6,"Cc1cn(-c2cc(NC(=O)c3ccc(C)c(Nc4nccc(-c5cccnc5)n4)c3)cc(C(F)(F)F)c2)cn1 [nilotinib] + Cc1nc(Nc2ncc(C(=O)Nc3c(C)cccc3Cl)s2)cc(N2CCN(CCO)CC2)n1 [dasatanib] (first compound 0.2 µM, partner dose 0.004 µM)",58.6
7,"Cc1cc(Nc2cc(N3CCN(C)CC3)nc(Sc3ccc(NC(=O)C4CC4)cc3)n2)n[nH]1 [Tozasertib] + O=C(O)c1ccc2c(c1)nc(Nc1cccc(Cl)c1)c1ccncc12 [CX4945] (first compound 0.006 µM, partner dose 0.4 µM)",238
8,"O=C(Nc1cc(C(F)(F)F)cc(C(F)(F)F)c1)c1cc(Cl)ccc1O + CO[C@H]1C[C@@H]2CC[C@@H](C)[C@@](O)(O2)C(=O)C(=O)N2CCCC[C@H]2C(=O)O[C@H]([C@H](C)C[C@@H]2CC[C@@H](OCCO)[C@H](OC)C2)CC(=O)[C@H](C)/C=C(\C)[C@@H](O)[C@@H](OC)C(=O)[C@H](C)C[C@H](C)/C=C/C=C/C=C/1C [everolimus] (first compound 0.016 µM, partner dose 0.02 µM)",132
9,"Cc1cc(Nc2cc(N3CCN(C)CC3)nc(Sc3ccc(NC(=O)C4CC4)cc3)n2)n[nH]1 [Tozasertib] + Nc1cccc2c1CN(C1CCC(=O)NC1=O)C2=O [lenalidomide] (first compound 0.006 µM, partner dose 1 µM)",68.6
10,"O=C(Nc1cc(C(F)(F)F)cc(C(F)(F)F)c1)c1cc(Cl)ccc1O + Cn1nnc2c(C(N)=O)ncn2c1=O [temozolomide] (first compound 0.016 µM, partner dose 2 µM)",183
11,"COc1cc([C@@H]2c3cc4c(cc3[C@@H](O[C@@H]3O[C@@H]5CO[C@@H](C)O[C@H]5[C@H](O)[C@H]3O)[C@H]3COC(=O)[C@H]23)OCO4)cc(OC)c1O [etoposide] + Cn1sc(=O)n(Cc2ccccc2)c1=O [TDZD-8] (first compound 0.02 µM, partner dose 0.4 µM)",60
12,"Cc1cn(-c2cc(NC(=O)c3ccc(C)c(Nc4nccc(-c5cccnc5)n4)c3)cc(C(F)(F)F)c2)cn1 [nilotinib] + Nc1nc(F)nc2c1ncn2[C@@H]1O[C@H](CO)[C@@H](O)[C@@H]1O [fludarabine] (first compound 0.2 µM, partner dose 0.2 µM)",65.3
13,"O=c1[nH]nc(Sc2ncc([N+](=O)[O-])s2)n1-c1ccc2c(c1)OCCO2 + CO[C@H]1C[C@@H]2CC[C@@H](C)[C@@](O)(O2)C(=O)C(=O)N2CCCC[C@H]2C(=O)O[C@H]([C@H](C)C[C@@H]2CC[C@@H](OCCO)[C@H](OC)C2)CC(=O)[C@H](C)/C=C(\C)[C@@H](O)[C@@H](OC)C(=O)[C@H](C)C[C@H](C)/C=C/C=C/C=C/1C [everolimus] (first compound 0.2 µM, partner dose 0.02 µM)",208
14,"O=c1[nH]nc(Sc2ncc([N+](=O)[O-])s2)n1-c1ccc2c(c1)OCCO2 + Cn1nnc2c(C(N)=O)ncn2c1=O [temozolomide] (first compound 0.2 µM, partner dose 2 µM)",146
15,"Cc1cc(Nc2cc(N3CCN(C)CC3)nc(Sc3ccc(NC(=O)C4CC4)cc3)n2)n[nH]1 [Tozasertib] + C[C@@H](Oc1cc(-c2cnn(C3CCNCC3)c2)cnc1N)c1c(Cl)ccc(F)c1Cl [Crizotinib] (first compound 0.006 µM, partner dose 0.2 µM)",171
16,"O=c1[nH]nc(Sc2ncc([N+](=O)[O-])s2)n1-c1ccc2c(c1)OCCO2 + NC(=O)c1ccc(N(C(N)=O)c2c(F)cccc2F)nc1-c1ccc(F)cc1F [VX702] (first compound 0.2 µM, partner dose 0.4 µM)",54.1
17,"Cc1ccc(Nc2nccc(N(C)c3ccc4c(C)n(C)nc4c3)n2)cc1S(N)(=O)=O [Pazopanib] + CO[C@H]1C[C@@H]2CC[C@@H](C)[C@@](O)(O2)C(=O)C(=O)N2CCCC[C@H]2C(=O)O[C@H]([C@H](C)C[C@@H]2CC[C@@H](OCCO)[C@H](OC)C2)CC(=O)[C@H](C)/C=C(\C)[C@@H](O)[C@@H](OC)C(=O)[C@H](C)C[C@H](C)/C=C/C=C/C=C/1C [everolimus] (first compound 0.4 µM, partner dose 0.02 µM)",184
18,"Cc1ccc(Nc2nccc(N(C)c3ccc4c(C)n(C)nc4c3)n2)cc1S(N)(=O)=O [Pazopanib] + CCCS(=O)(=O)Nc1ccc(F)c(C(=O)c2c[nH]c3ncc(Cl)cc23)c1F [PLX4720] (first compound 0.4 µM, partner dose 0.08 µM)",101
19,"N#CC[C@H](C1CCCC1)n1cc(-c2ncnc3[nH]ccc23)cn1 [ruxolitinib] + OCc1c[nH]c2ccccc12 [Indole-3-carbinol] (first compound 1 µM, partner dose 0.8 µM)",77.4
20,"Cc1ccc(Nc2nccc(N(C)c3ccc4c(C)n(C)nc4c3)n2)cc1S(N)(=O)=O [Pazopanib] + OCc1c[nH]c2ccccc12 [Indole-3-carbinol] (first compound 0.4 µM, partner dose 0.8 µM)",51.7
21,"COc1cc([C@@H]2c3cc4c(cc3[C@@H](O[C@@H]3O[C@@H]5CO[C@@H](C)O[C@H]5[C@H](O)[C@H]3O)[C@H]3COC(=O)[C@H]23)OCO4)cc(OC)c1O [etoposide] + C[C@]1(O)C[C@@H](c2nc(-c3ccc4ccc(-c5ccccc5)nc4c3)c3c(N)nccn32)C1 [OSI906] (first compound 0.02 µM, partner dose 0.4 µM)",14.1
22,"N#CC[C@H](C1CCCC1)n1cc(-c2ncnc3[nH]ccc23)cn1 [ruxolitinib] + CO[C@H]1C[C@@H]2CC[C@@H](C)[C@@](O)(O2)C(=O)C(=O)N2CCCC[C@H]2C(=O)O[C@H]([C@H](C)C[C@@H]2CC[C@@H](OCCO)[C@H](OC)C2)CC(=O)[C@H](C)/C=C(\C)[C@@H](O)[C@@H](OC)C(=O)[C@H](C)C[C@H](C)/C=C/C=C/C=C/1C [everolimus] (first compound 1 µM, partner dose 0.02 µM)",90.3
23,"Cc1ccc(Nc2nccc(N(C)c3ccc4c(C)n(C)nc4c3)n2)cc1S(N)(=O)=O [Pazopanib] + Cn1nnc2c(C(N)=O)ncn2c1=O [temozolomide] (first compound 0.4 µM, partner dose 2 µM)",88.7
24,"O=c1[nH]nc(Sc2ncc([N+](=O)[O-])s2)n1-c1ccc2c(c1)OCCO2 + CCCS(=O)(=O)Nc1ccc(F)c(C(=O)c2c[nH]c3ncc(Cl)cc23)c1F [PLX4720] (first compound 0.2 µM, partner dose 0.08 µM)",104
25,"Cc1ccc(Nc2nccc(N(C)c3ccc4c(C)n(C)nc4c3)n2)cc1S(N)(=O)=O [Pazopanib] + CC(=O)c1c(C)c2cnc(Nc3ccc(N4CCNCC4)cn3)nc2n(C2CCCC2)c1=O [palbociclib] (first compound 0.4 µM, partner dose 0.04 µM)",33.2

# Rewritten tab-delimited: entries from further up
row	Compound	cleaved PARP positive nuclei fraction [%]
2	COc1cc([C@@H]2c3cc4c(cc3[C@@H](O[C@@H]3O[C@@H]5CO[C@@H](C)O[C@H]5[C@H](O)[C@H]3O)[C@H]3COC(=O)[C@H]23)OCO4)cc(OC)c1O [etoposide] + CC1(C)CCC(c2ccc(Cl)cc2)=C(CN2CCN(c3ccc(C(=O)NS(=O)(=O)c4ccc(N[C@H](CCN5CCOCC5)CSc5ccccc5)c(S(=O)(=O)C(F)(F)F)c4)cc3)CC2)C1 [ABT263] (first compound 0.02 µM, partner dose 0.4 µM)	399
3	CC[C@]1(O)C[C@H]2CN(CCc3c([nH]c4ccccc34)[C@@](C(=O)OC)(c3cc4c(cc3OC)N(C=O)[C@H]3[C@@](O)(C(=O)OC)[C@H](OC(C)=O)[C@]5(CC)C=CCN6CC[C@]43[C@@H]65)C2)C1 [vincristine] + NC(=O)c1ccc(N(C(N)=O)c2c(F)cccc2F)nc1-c1ccc(F)cc1F [VX702] (first compound 0.0001 µM, partner dose 0.4 µM)	119
